3 molecules from publication PMC6090974 can be followed below.

Amino acid sequences for entries named in this document (tags omitted). A change or cut given only in a name is not applied to a line headed by its entry.
UniProt Q92769: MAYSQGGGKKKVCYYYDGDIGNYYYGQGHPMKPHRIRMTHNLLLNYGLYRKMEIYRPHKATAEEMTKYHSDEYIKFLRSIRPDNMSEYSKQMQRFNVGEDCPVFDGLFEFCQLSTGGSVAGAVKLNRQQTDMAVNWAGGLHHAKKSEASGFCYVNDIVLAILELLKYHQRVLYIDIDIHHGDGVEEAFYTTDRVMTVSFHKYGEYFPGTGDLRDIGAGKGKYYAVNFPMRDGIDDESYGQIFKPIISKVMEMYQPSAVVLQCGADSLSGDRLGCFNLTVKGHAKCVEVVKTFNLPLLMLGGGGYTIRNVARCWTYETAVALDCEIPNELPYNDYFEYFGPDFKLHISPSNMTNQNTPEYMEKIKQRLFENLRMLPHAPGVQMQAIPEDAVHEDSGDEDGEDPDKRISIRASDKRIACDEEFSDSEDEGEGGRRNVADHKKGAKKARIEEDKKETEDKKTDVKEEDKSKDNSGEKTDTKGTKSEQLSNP

For experiment [1], the target named is T1, Tricho-rhino-phalangeal syndrome 1 (TRPS1) transcription factor, endogenous (human (endogenous in MCF7 and T47D)) (UniProt Q9UHF7).
T1 sequence: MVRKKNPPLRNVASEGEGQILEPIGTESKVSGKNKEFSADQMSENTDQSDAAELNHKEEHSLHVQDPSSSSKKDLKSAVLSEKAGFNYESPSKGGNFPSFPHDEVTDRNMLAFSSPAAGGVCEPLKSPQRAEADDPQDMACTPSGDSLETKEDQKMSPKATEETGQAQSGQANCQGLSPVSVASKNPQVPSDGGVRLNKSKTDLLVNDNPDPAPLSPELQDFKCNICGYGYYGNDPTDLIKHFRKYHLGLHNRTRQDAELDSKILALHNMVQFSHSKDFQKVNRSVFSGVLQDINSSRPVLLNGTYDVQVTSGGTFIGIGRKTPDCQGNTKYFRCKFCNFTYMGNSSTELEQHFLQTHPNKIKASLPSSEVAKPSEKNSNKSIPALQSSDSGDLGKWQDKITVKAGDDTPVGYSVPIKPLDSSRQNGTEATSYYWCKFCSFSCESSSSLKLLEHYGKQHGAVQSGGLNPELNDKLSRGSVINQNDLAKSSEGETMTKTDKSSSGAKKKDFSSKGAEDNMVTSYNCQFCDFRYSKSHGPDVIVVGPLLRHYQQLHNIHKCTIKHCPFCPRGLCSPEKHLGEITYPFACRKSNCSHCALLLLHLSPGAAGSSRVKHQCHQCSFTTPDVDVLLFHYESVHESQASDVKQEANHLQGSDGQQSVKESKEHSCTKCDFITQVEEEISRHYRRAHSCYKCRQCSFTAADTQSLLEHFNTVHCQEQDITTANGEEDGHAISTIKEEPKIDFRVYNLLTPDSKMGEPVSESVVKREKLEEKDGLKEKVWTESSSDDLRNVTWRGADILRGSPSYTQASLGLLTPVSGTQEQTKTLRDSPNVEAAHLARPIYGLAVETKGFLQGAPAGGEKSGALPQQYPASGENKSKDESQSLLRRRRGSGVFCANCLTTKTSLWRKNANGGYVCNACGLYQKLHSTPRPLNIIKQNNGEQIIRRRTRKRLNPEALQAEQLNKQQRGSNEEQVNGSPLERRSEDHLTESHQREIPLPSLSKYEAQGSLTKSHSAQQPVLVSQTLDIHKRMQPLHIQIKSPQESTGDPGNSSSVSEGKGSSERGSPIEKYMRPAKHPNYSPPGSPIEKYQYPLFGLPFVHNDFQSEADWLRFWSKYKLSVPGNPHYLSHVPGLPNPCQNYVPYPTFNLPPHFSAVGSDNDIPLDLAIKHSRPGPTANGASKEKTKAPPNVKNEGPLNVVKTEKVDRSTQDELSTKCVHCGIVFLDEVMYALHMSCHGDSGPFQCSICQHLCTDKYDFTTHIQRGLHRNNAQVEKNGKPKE
Put plainly: co-IP; sequential co-IP: MCF7 lysate, control IgG or anti-TRPS1 antibody, eluted from agarose beads with 50 mM Tris-HCl pH 7.4, 900 mM NaCl, 1 mM EDTA, 1% Triton X-100, then a second immunoprecipitation with the indicated antibodies.

Experiment [2] concerns the target T1, Tricho-rhino-phalangeal syndrome 1 (TRPS1) transcription factor, endogenous (human (endogenous in MCF7 and T47D)). Put plainly: co-IP; endogenous proteins, MCF7 and T47D lysates, anti-TRPS1 antibody with protein A/G agarose overnight at 4 °C, immunoblot. A general note: Immunoblotting shows a protein as a band on a membrane.
Experiment [3] shares this target. The experiment is described as above. This is another data set of the same source.
The target in experiment [4] is Histone deacetylase 2 (HDAC2), endogenous (human (endogenous in MCF7 and T47D)) (UniProt Q92769). Put plainly: co-IP; endogenous proteins, MCF7 and T47D lysates, anti-HDAC2 antibody; cells with control or TRPS1 siRNA.
In experiment [5] the target is Myc-HDAC2 (pCDNA3.1-Myc-HDAC2) (UniProt Q92769). Put plainly: co-IP; HEK293T co-transfected with Flag-USP4, Myc-HDAC2 and with or without Flag-TRPS1; anti-Myc antibody, immunoblot.

These are yes or no findings as the source states them, for the method shown. Binding seen in cells or lysates may run through a third protein. Some results given as binding are weak or reduced against the parent protein; the word gives no strength. For part of these data: Tags and fused reporters may be left off the sequences shown.

Turning to “Histone deacetylase 2 (HDAC2), endogenous (from UniProt Q92769 1-488)”, the binding result in experiment [1] and in experiment [2] was “binds” throughout.

B1: Ubiquitin-specific protease 4 (USP4), endogenous (enzyme, UniProt Q13107 1-963)
chain: MAEGGGCRERPDAETQKSELGPLMRTTLQRGAQWYLIDSRWFKQWKKYVGFDSWDMYNVGEHNLFPGPIDNSGLFSDPESQTLKEHLIDELDYVLVPTEAWNKLLNWYGCVEGQQPIVRKVVEHGLFVKHCKVEVYLLELKLCENSDPTNVLSCHFSKADTIATIEKEMRKLFNIPAERETRLWNKYMSNTYEQLSKLDNTVQDAGLYQGQVLVIEPQNEDGTWPRQTLQSKSSTAPSRNFTTSPKSSASPYSSVSASLIANGDSTSTCGMHSSGVSRGGSGFSASYNCQEPPSSHIQPGLCGLGNLGNTCFMNSALQCLSNTAPLTDYFLKDEYEAEINRDNPLGMKGEIAEAYAELIKQMWSGRDAHVAPRMFKTQVGRFAPQFSGYQQQDSQELLAFLLDGLHEDLNRVKKKPYLELKDANGRPDAVVAKEAWENHRLRNDSVIVDTFHGLFKSTLVCPECAKVSVTFDPFCYLTLPLPLKKDRVMEVFLVPADPHCRPTQYRVTVPLMGAVSDLCEALSRLSGIAAENMVVADVYNHRFHKIFQMDEGLNHIMPRDDIFVYEVCSTSVDGSECVTLPVYFRERKSRPSSTSSASALYGQPLLLSVPKHKLTLESLYQAVCDRISRYVKQPLPDEFGSSPLEPGACNGSRNSCEGEDEEEMEHQEEGKEQLSETEGSGEDEPGNDPSETTQKKIKGQPCPKRLFTFSLVNSYGTADINSLAADGKLLKLNSRSTLAMDWDSETRRLYYDEQESEAYEKHVSMLQPQKKKKTTVALRDCIELFTTMETLGEHDPWYCPNCKKHQQATKKFDLWSLPKILVVHLKRFSYNRYWRDKLDTVVEFPIRGLNMSEFVCNLSARPYVYDLIAVSNHYGAMGVGHYTAYAKNKLNGKWYYFDDSNVSLASEDQIVTKAAYVLFYQRRDDEFYKTPSLSSSGSSDGGTRPSSSQQGFGDDEACSMDTN
With B1, the binding entry in experiment [1], in experiment [3] and in experiment [4] was “binds” each time.

B2: Flag-USP4 (pCDNA3.1-Flag-USP4) (enzyme, UniProt Q13107 1-963)
chain: B1 chain
On to B2, for which the binding result in experiment [5] is recorded as “binds”.
